Assay results reported in PubChem BioAssay AID504834 (National Center for Advancing Translational Sciences (NCATS), 2011).
Values joined by “and” are separate entries in the source; they are usually repeats but may differ in a detail not shown here. Equal entries are not always repeated. Screen size: about 320,000 compounds; about 22,000 (6.9%) were called active. This list was built around the results that the source calls inconclusive (neither active nor inactive); the mix of calls is not that of the screen. Calls follow the shape of the dose curve; as a rule, active = well fitted inhibition curve with a large enough effect; inconclusive = small, poorly fitted or top-dose-only effect, or another doubt; inactive = no such curve, though single readings can be large or run the other way. Potencies beside an inconclusive call are fits to weak or partial responses and may not hold up.
% is scaled to controls: 0 for no effect and ±100 for the full control effect; potency is read from the fitted curve at half-maximal effect.

Test: Primary qHTS for delayed death inhibitors of the malarial parasite plastid, 96 hour incubation
Conditions: P. falciparum luciferase reporter growth; series mostly up to 28.7 µM; activity change, negative = inhibition: at the top concentration
Summary of the method: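 Compounds incubated with erythrocytes infected by luciferase-expressing P. falciparum (2% hematocrit, 0.05% parasitemia final) for 96 hours, 37 C in 5% CO2. Growth inhibition scored as decreased luciferase luminescence.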
In the case of `O=C(CC1C(=O)NCCN1Cc1cccc(Oc2ccccc2)c1)NCC1CCOCC1` (configuration not stated), the “activity change, negative = inhibition” value is reported as inactive: -0.8%.
In the case of `C/C(=N\NS(=O)(=O)c1ccccc1)c1cc(Cl)cc(Cl)c1O`, the “activity change, negative = inhibition” value is reported as inactive: 19.4%.
With `CC(NC(=O)COc1ccc(/C=N/NC(=O)CO)cc1)c1ccccc1` (configuration not stated) the “activity change, negative = inhibition” value was inactive: 133%.
For `O=C(Nc1ccc(NC(=O)c2ccccc2O)cc1)Nc1ccc(F)cc1F`, the Potency was inconclusive: 14.7 µM [inhibitor, single point].
For `C/C(=N/NC(=O)C1CCCC1)c1ccc(NC(=O)C(F)(F)F)cc1`, the Potency was inconclusive: 16.5 µM [inhibitor, single point].
For `CCn1c(C)nc2cc(C(=O)n3cc(C(=O)c4cc(F)ccc4O)cn3)ccc21`, the Potency was active: 0.828 µM.
In the case of `CSc1cccc(NC(=S)NCCCN2CCN(c3ccc(F)cc3)CC2)c1`, the Potency is reported as active: 8.28 µM.
For `CCCCN(C)CC(O)Cn1cc(/C=C/C(=O)c2cccs2)c2ccccc21` (configuration not stated), the Potency was active: 4.15 µM.
For `NS(=O)(=O)c1ccc(NC(=O)COC(=O)CN2C(=O)C3CC=CCC3C2=O)cc1` (configuration not stated), the “activity change, negative = inhibition” value was inactive: 9.67%.
For `COc1ccc(NC(=O)c2ccc(F)c(F)c2)c2ccccc12`, the “activity change, negative = inhibition” value was inactive: 9.04%.
For `Cc1ccccc1Cn1ccc(NC(=O)c2cc3ncc(Br)cn3n2)n1`, the Potency was inconclusive: 7.38 µM [inhibitor, partial curve].
With `CCOc1cc(/C=C2/SC(=O)N(CC(=O)N3CCc4ccccc4C3)C2=O)ccc1OCC(=O)O` the Potency was inconclusive: 0.0415 µM [inhibitor, full curve, poor fit].
With `CSc1ccc(/C=C(\C#N)C(=O)NC2CCCCC2)cc1` the Potency was inconclusive: 18.5 µM [inhibitor, single point].
In the case of `O=C(O)c1cccc(Nc2ccncc2[N+](=O)[O-])c1`, the Potency is reported as inconclusive: 16.5 µM [inhibitor, partial curve, poor fit].
With `CSc1nnc(-c2ccccc2Cl)o1` the “activity change, negative = inhibition” value was inactive: -13%.
With `Cc1ccc(-c2ccc(=O)n(CCC(=O)N3CCN(c4ccccc4)CC3)n2)cc1` the Potency was inconclusive: 5.22 µM [inhibitor, partial curve].
In the case of `CCN1CCN(C(CNS(=O)(=O)c2ccc(Cl)cc2)c2ccccc2)CC1` (configuration not stated), the Potency is reported as inconclusive: 9.28 µM [inhibitor, partial curve, poor fit].
In the case of `C/C(Cn1nnc([N+](=O)[O-])n1)=N\NC(=O)c1ccccc1Cl`, the Potency is reported as active: 9.28 µM.
For `COc1ccc(-c2nn(-c3ccccc3)cc2/C=C(\C#N)S(=O)(=O)c2ccccc2)cc1OC`, the “activity change, negative = inhibition” value was inactive: 37.7%.
In the case of `CCOC(=O)CSCc1c(C#N)c2ccccc2n1C`, the Potency is reported as inconclusive: 13.1 µM [inhibitor, single point].
For `COc1ccccc1NC(=O)CSc1nnnn1-c1ccccc1OC`, the Potency was inconclusive: 11.7 µM [inhibitor, single point].
For `Cc1cc(NC(=O)CCl)n(-c2nc3ccccc3s2)n1`, the “activity change, negative = inhibition” value was inactive: 19.1%.
In the case of `CCNC(=O)N1CCN(CCCC(c2ccc(F)cc2)c2ccc(F)cc2)CC1`, the Potency is reported as active: 1.9 µM and active: 1.65 µM.
In the case of `O=C(c1ccncc1)c1ccc(N2CCN(C3CC(=O)N(Cc4ccccc4)C3=O)CC2)cc1` (configuration not stated), the “activity change, negative = inhibition” value is reported as inactive: 46.6%.
With `Cc1ccc(C)c2nc(SCC(=O)N3CCCc4ccccc43)c(C#N)cc12` the Potency was inconclusive: 2.62 µM [inhibitor, full curve, poor fit].
In the case of `COc1cccc(NC(=S)N(CCCN2CCCC2)Cc2cccn2Cc2ccc(Cl)cc2)c1`, the Potency is reported as inconclusive: 10.4 µM [inhibitor, single point].
In the case of `O=C(CSc1nnnn1-c1ccccc1)NC(=O)Nc1ccc2c(c1)OCCO2`, the “activity change, negative = inhibition” value is reported as inactive: 119%.
For `O=C(c1cccc([N+](=O)[O-])c1)N1CCOCC1`, the Potency was inconclusive: 0.928 µM [inhibitor, full curve].
In the case of `CN(C)c1ccc(NC(=O)CC(NCc2ccccn2)C(=O)O)cc1` (configuration not stated), the “activity change, negative = inhibition” value is reported as inactive: 17.2%.
With `C=C(Br)Cn1c(CC)nc2ccccc21` the Potency was inconclusive: 0.0033 µM [inhibitor, full curve, poor fit].
With `CN(C)C(=O)Oc1ccc(Br)cc1C(=O)Nc1ccc(F)c(Cl)c1` the Potency was inconclusive: 0.165 µM [inhibitor, full curve].
In the case of `COc1ccc(S(=O)(=O)Nc2cccc(F)c2C)cc1C(=O)N1CCOCC1`, the Potency is reported as inconclusive: 18.5 µM [inhibitor, single point].
With `Cc1ccc(C(=O)Nc2ccccc2N2CCCC2)cc1S(=O)(=O)N1CCOCC1` the Potency was inconclusive: 13.1 µM [inhibitor, single point].
In the case of `COc1ccc(CC(=O)NCC2(c3ccc(OC)c(OC)c3)CCOCC2)cc1`, the Potency is reported as inconclusive: 10.4 µM [inhibitor, partial curve, poor fit].
In the case of `Cc1ccc(NC(=S)NNC(=S)NCc2ccccc2)cc1`, the Potency is reported as inconclusive: 18.5 µM [inhibitor, single point].
In the case of `CCOc1ccccc1NC(=O)NCc1cccnc1`, the Potency is reported as inconclusive: 10.4 µM [inhibitor, single point].
For `C=CCNc1nc(-c2sc(NC(C)=O)nc2C)cs1`, the “activity change, negative = inhibition” value was inactive: -3.35%.
For `O=C(CCCN=C1NS(=O)(=O)c2ccccc21)OCC(=O)c1ccccc1Cl`, the “activity change, negative = inhibition” value was inactive: 18.2%.
With `CCCCCCCCCc1nc(N)n[nH]1` the Potency was inconclusive: 10.4 µM [inhibitor, partial curve, poor fit].
For `O=S(=O)(c1ccc(F)cc1)N1CCN(c2ncccn2)CC1`, the “activity change, negative = inhibition” value was inactive: 4.37%.
For `N=C1c2ccccc2CN1NC(=O)c1ccc(Cl)cc1`, the Potency was inconclusive: 0.0738 µM [inhibitor, full curve, poor fit].
With `COc1cccc(C=Nc2ccc(N3CCOCC3)cc2)c1O` the Potency was inconclusive: 14.7 µM [inhibitor, single point].
With `CN(C)c1cc(-c2ccc(Cl)cc2)oc(=O)c1Cl` the Potency was inconclusive: 13.1 µM [inhibitor, single point].
With `O=C(Nc1ccc(F)cc1Cl)c1ccc2c(=O)n3c(nc2c1)CCCCC3` the Potency was active: 3.7 µM.
In the case of `C/C(=N\OCC(=O)NC(C)C)c1cccs1`, the “activity change, negative = inhibition” value is reported as inactive: 36.9%.
With `Cc1cc(Nc2cccc([N+](=O)[O-])c2)c2cccc(C)c2n1` the Potency was inconclusive: 18.5 µM [inhibitor, single point].
For `Cc1cccc(NC(=O)CN2C(=O)N/C(=C/c3cc(C)n(-c4ccncc4)c3C)C2=O)c1`, the Potency was inconclusive: 0.928 µM [inhibitor, partial curve, poor fit].
